Results are given in words; binding and its absence hold for the method and conditions named. In cells and extracts the contact can be indirect. These calls come from enrichment with a bait or labelling near it, and not all partners need be listed. A no says only that the protein was not detected with the bait.
B1: FLOT1 (protein, UniProt O75955 1-427)
chain: MFFTCGPNEAMVVSGFCRSPPVMVAGGRVFVLPCIQQIQRISLNTLTLNVKSEKVYTRHGVPISVTGIAQVKIQGQNKEMLAAACQMFLGKTEAEIAHIALETLEGHQRAIMAHMTVEEIYKDRQKFSEQVFKVASSDLVNMGISVVSYTLKDIHDDQDYLHSLGKARTAQVQKDARIGEAEAKRDAGIREAKAKQEKVSAQYLSEIEMAKAQRDYELKKAAYDIEVNTRRAQADLAYQLQVAKTKQQIEEQRVQVQVVERAQQVAVQEQEIARREKELEARVRKPAEAERYKLERLAEAEKSQLIMQAEAEAASVRMRGEAEAFAIGARARAEAEQMAKKAEAFQLYQEAAQLDMLLEKLPQVAEEISGPLTSANKITLVSSGSGTMGAAKVTGEVLDILTRLPESVERLTGVSISQVNHKPLRTA
B2: MARCKS (protein, UniProt P29966 1-332)
chain: MGAQFSKTAAKGEAAAERPGEAAVASSPSKANGQENGHVKVNGDASPAAAESGAKEELQANGSAPAADKEEPAAAGSGAASPSAAEKGEPAAAAAPEAGASPVEKEAPAEGEAAEPGSPTAAEGEAASAASSTSSPKAEDGATPSPSNETPKKKKKRFSFKKSFKLSGFSFKKNKKEAGEGGEAEAPAAEGGKDEAAGGAAAAAAEAGAASGEQAAAPGEEAAAGEEGAAGGDPQEAKPQEAAVAPEKPPASDETKAAEEPSKVEEKKAEEAGASAAACEAPSAAGPGAPPEQEAAPAEEPAAAAASSACAAPSQEAQPECSPEAPPAEAAE
B3: AKR1A1 (protein, UniProt P14550 1-325)
chain: MAASCVLLHTGQKMPLIGLGTWKSEPGQVKAAVKYALSVGYRHIDCAAIYGNEPEIGEALKEDVGPGKAVPREELFVTSKLWNTKHHPEDVEPALRKTLADLQLEYLDLYLMHWPYAFERGDNPFPKNADGTICYDSTHYKETWKALEALVAKGLVQALGLSNFNSRQIDDILSVASVRPAVLQVECHPYLAQNELIAHCQARGLEVTAYSPLGSSDRAWRDPDEPVLLEEPVVLALAEKYGRSPAQILLRWQVQRKVICIPKSITPSRILQNIKVFDFTFSPEEMKQLNALNKNWRYIVPMLTVDGKRVPRDAGHPLYPFNDPY
B4: RBM33 (protein, UniProt Q96EV2 1-1170)
chain: MAAALGASGGAGAGDDDFDQFDKPGAERSWRRRAADEDWDSELEDDLLGEDLLSGKKNQSDLSDEELNDDLLQSDNEDEENFSSQGVTISLNATSGMVTSFELSDNTNDQSGEQESEYEQEQGEDELVYHKSDGSELYTQEYPEEGQYEGHEAELTEDQIEYVEEPEEEQLYTDEVLDIEINEPLDEFTGGMETLELQKDIKEESDEEEEDDEESGRLRFKTERKEGTIIRLSDVTRERRNIPETLELSAEAKAALLEFEERERQHKQGRYSSRRGGRRGGPLMCRGVGDQRRESTERGRMKDHRPALLPTQPPVVPQAPPPPPPPPQQQPIRSLFQPQPLQPLLPVQHPHHPSPPQGMHMPPQLETPRMMMTPPPVTPQQPKNIHINPHFKGTVVTPVQVPLLPVPSQPRPAVGPQRFPGPPEFPQHTPGPVPNSFSQPPRLPLQDQWRAPPPPQDRDPFFLGVSGEPRFPSHLFLEQRSPPPPPPPPTLLNSSHPVPTQSPLPFTQPGPAFNQQGQQPVFPRERPVRPALQPPGPVGILHFSQPGSATTRPFIPPRQPFLPGPGQPFLPTHTQPNLQGPLHPPLPPPHQPQPQQPQQQPPPQHQPPHQPPHQPPPQHQPPPQHPPQHPPQHQHHHHHHHLSVPPPPLMPMSQPQFRPHVQTAQPQASSSRMQCPQRQGLRHNTTSQNVSKRPMQQMQPTAPRNSNLRELPIAPSHVIEMSSSRCSATPSAQVKPIVSASPPSRAVAGSRSSQGKTEVKVKPASPVAQPKEEAKTETEFPDEDEETRLYRLKIEEQKRLREEILKQKELRRQQQAGARKKELLERLAQQQQQLYAPPPPAEQEEQALSPSPTNGNPLLPFPGAQVRQNVKNRLLVKNQDVSISNVQPKTSNFVPSSANMQYQGQQMKALKHLRQTRTVPQSQTQPLHKVLPIKPADVEEPAVPQTPRVASIQGRPQDTKPGVKRTVTHRTNSGGGDGPHISSKVRVIKLSGGGGESDGFFHPEGQPQRLPQPPEVGPQPARKVTLTRGGLQQPPHLPAGPHAHSPVPPGIKSIQGIHPAKKAIMHGRGRGVAGPMGRGRLMPNKQNLRVVECKPQPCVVSVEGLSSSTTDAQLKSLLMSVGPIQSLQMLPQQRKAIAKFKEPAHALAFQQKFHRHMIDLSHINVALIVE
B5: PDS5A (protein, UniProt Q29RF7 1-1337)
chain: MDFTAQPKPATALCGVVSADGKIAYPPGVKEITDKITTDEMIKRLKMVVKTFMDMDQDSEDEKQQYLPLALHLASEFFLRNPNKDVRLLVACCLADIFRIYAPEAPYTSHDKLKDIFLFITRQLKGLEDTKSPQFNRYFYLLENLAWVKSYNICFELEDCNEIFIQLFRTLFSVINNSHNKKVQMHMLDLMSSIIMEGDGVTQELLDSILINLIPAHKNLNKQSFDLAKVLLKRTVQTIEACIANFFNQVLVLGRSSVSDLSEHVFDLIQELFAIDPHLLLSVMPQLEFKLKSNDGEERLAVVRLLAKLFGSKDSDLATQNRPLWQCFLGRFNDIHVPVRLESVKFASHCLMNHPDLAKDLTEYLKVRSHDPEEAIRHDVIVTIITAAKRDLALVNDQLLGFVRERTLDKRWRVRKEAMMGLAQLYKKYCLHGEAGKEAAEKVSWIKDKLLHIYYQNSIDDKLLVEKIFAQYLVPHNLETEERMKCLYYLYASLDPNAVKALNEMWKCQNMLRSHVRELLDLHKQPTSEANCSAMFGKLMTIAKNLPDPGKAQDFVKKFNQVLGDDEKLRSQLELLISPTCSCKQADICVREIARKLANPKQPTNPFLEMVKFLLERIAPVHIDSEAISALVKLMNKSIEGTADDEEEGVSPDTAIRSGLELLKVLSFTHPTSFHSAETYESLLQCLRMEDDKVAEAAIQIFRNTGHKIETDLPQIRSTLIPILHQKAKRGTPHQAKQAVHCIHAIFTNKEVQLAQIFEPLSRSLNADVPEQLITPLVSLGHISMLAPDQFASPMKSVVANFIVKDLLMNDRSTGEKNGKLWSPDEEVSPEVLAKVQAIKLLVRWLLGMKNNQSKSANSTLRLLSAMLVSEGDLTEQKRISKSDMSRLRLAAGSAIMKLAQEPCYHEIITPEQFQLCALVINDECYQVRQIFAQKLHKALVKLLLPLEYMAIFALCAKDPVKERRAHARQCLLKNISIRREYIKQNPMATEKLLSLLPEYVVPYMIHLLAHDPDFTRSQDVDQLRDIKECLWFMLEVLMTKNENNSHAFMKKMAENIKLTRDAQSPDESKTNEKLYTVCDVALCVINSKSALCNADSPKDPVLPMKFFTQPEKDFCNDKSYISEETRVLLLTGKPKPAGVLGAVNKPLSATGRKPYVRSTGTETGSNINVNSELNPSTGNRSREQSSEAAETGVSENEENPVRIISVTPVKNIDPVKNKEINSDQATQGNISSDRGKKRTVTAAGAENIQQKTDEKVDESGPPAPSKPRRGRRPKSESQGNATKNDDLNKPINKGRKRAAVGQESPGGLEAGNAKAPKLQDLAKKAAPAERQIDLQR

Protein sequences, listed by entry. Tags and fused reporters are not part of them. Residues count along the entry.
UniProt Q01705, residues 1749-2293: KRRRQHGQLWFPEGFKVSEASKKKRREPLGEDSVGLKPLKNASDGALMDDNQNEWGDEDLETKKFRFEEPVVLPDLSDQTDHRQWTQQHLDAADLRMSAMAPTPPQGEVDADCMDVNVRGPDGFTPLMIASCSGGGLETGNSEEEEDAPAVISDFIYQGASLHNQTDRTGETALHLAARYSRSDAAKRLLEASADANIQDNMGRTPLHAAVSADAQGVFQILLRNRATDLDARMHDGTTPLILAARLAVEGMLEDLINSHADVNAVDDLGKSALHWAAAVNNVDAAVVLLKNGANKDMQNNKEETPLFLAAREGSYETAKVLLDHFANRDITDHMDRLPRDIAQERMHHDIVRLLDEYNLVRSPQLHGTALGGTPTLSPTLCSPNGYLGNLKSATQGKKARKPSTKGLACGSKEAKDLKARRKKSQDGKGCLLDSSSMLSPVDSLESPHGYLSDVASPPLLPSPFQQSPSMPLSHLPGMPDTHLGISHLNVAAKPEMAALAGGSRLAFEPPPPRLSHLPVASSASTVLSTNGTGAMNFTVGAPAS
UniProt Q96BD5: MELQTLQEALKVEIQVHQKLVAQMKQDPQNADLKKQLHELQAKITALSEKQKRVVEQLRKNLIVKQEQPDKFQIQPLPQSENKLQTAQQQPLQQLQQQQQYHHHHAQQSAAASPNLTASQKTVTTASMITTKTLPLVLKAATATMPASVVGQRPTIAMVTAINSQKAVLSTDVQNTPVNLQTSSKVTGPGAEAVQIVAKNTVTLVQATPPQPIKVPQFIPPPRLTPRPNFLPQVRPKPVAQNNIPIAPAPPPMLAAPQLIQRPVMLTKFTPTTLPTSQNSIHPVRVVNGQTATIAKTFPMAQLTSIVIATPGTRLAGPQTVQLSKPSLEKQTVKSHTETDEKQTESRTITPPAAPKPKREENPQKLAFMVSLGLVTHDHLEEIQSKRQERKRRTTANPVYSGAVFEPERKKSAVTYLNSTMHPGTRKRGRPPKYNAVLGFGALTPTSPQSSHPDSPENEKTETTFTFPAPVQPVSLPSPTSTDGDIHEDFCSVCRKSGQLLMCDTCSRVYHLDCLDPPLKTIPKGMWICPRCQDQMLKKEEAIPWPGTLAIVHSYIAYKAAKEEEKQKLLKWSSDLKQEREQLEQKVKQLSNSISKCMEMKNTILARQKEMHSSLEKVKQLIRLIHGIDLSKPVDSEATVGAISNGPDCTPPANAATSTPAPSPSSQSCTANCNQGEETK
UniProt Q9UGU0: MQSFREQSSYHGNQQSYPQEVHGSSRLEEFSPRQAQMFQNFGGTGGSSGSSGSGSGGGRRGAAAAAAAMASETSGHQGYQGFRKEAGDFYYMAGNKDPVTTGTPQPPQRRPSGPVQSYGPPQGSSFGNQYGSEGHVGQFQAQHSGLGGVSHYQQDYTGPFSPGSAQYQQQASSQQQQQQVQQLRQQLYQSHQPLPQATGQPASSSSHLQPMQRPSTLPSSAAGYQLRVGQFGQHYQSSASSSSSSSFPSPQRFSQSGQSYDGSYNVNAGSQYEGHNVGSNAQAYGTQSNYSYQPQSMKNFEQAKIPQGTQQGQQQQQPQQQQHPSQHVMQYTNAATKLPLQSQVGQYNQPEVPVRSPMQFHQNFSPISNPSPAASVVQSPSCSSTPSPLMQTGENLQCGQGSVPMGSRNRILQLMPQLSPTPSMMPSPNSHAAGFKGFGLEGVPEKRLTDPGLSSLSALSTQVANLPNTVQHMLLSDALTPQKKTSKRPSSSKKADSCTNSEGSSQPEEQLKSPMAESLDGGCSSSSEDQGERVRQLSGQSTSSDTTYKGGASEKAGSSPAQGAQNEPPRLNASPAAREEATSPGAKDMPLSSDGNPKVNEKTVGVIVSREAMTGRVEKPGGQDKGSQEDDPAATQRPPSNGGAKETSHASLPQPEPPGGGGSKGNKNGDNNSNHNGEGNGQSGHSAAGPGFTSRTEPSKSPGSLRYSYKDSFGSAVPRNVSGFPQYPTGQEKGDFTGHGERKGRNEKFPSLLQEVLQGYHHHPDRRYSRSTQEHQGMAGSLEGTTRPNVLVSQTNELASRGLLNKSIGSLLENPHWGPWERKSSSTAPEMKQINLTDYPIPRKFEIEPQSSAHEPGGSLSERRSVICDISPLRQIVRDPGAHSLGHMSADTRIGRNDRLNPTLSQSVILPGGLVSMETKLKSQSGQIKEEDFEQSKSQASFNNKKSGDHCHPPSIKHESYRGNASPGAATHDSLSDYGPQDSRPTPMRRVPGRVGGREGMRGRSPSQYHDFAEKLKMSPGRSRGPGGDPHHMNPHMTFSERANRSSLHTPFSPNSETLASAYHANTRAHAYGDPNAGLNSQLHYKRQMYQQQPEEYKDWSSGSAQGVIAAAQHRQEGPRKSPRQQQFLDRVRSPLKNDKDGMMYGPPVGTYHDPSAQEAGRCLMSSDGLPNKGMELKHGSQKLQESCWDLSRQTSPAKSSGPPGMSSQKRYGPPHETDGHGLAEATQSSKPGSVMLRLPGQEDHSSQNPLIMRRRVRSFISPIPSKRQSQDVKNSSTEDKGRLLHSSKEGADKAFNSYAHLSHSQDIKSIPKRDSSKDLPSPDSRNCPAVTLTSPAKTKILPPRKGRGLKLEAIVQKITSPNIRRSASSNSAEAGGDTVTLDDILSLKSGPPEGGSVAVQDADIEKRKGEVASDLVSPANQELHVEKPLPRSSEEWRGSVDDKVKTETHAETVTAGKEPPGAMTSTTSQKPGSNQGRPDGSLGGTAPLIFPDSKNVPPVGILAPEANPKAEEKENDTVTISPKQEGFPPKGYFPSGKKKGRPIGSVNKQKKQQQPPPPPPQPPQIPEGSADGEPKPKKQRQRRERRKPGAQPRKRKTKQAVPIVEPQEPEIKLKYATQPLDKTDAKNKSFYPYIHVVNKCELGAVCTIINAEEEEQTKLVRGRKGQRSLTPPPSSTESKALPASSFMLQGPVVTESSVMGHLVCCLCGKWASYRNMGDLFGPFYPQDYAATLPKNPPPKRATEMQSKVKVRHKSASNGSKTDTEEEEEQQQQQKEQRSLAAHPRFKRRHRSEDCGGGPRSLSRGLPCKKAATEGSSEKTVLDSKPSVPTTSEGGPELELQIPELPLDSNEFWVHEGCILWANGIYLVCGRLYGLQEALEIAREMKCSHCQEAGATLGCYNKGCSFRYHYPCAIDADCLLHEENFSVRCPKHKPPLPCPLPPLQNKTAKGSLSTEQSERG
UniProt Q9HAV4: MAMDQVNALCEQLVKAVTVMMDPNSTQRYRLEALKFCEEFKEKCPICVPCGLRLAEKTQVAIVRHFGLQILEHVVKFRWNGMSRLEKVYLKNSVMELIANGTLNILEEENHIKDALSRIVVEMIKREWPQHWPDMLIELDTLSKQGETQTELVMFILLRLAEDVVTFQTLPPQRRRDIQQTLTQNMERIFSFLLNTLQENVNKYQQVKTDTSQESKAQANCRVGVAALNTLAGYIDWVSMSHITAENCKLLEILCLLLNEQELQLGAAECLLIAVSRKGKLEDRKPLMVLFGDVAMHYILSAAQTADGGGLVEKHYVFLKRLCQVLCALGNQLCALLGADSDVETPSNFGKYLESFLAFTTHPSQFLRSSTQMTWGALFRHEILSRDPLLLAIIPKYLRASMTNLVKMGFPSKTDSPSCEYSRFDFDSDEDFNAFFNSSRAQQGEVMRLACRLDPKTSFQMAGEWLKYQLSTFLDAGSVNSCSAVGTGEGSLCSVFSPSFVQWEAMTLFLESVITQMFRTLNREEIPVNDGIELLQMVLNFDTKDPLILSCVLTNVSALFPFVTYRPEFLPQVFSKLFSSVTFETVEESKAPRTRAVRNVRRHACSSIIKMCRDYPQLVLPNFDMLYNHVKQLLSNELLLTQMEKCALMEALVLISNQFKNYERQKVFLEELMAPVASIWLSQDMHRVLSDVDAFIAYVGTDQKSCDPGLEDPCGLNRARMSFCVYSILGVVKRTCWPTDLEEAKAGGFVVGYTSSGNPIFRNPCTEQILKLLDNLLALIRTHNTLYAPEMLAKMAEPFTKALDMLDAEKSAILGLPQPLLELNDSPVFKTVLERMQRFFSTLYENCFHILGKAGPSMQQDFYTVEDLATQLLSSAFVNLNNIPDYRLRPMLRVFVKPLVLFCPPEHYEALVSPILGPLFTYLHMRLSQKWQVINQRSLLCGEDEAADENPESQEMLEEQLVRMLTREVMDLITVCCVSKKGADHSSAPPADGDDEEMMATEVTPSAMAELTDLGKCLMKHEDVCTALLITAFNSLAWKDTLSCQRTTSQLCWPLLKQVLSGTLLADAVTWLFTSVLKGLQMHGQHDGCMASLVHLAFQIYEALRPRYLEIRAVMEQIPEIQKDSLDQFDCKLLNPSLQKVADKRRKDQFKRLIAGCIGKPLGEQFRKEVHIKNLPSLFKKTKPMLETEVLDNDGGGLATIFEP
UniProt P35222: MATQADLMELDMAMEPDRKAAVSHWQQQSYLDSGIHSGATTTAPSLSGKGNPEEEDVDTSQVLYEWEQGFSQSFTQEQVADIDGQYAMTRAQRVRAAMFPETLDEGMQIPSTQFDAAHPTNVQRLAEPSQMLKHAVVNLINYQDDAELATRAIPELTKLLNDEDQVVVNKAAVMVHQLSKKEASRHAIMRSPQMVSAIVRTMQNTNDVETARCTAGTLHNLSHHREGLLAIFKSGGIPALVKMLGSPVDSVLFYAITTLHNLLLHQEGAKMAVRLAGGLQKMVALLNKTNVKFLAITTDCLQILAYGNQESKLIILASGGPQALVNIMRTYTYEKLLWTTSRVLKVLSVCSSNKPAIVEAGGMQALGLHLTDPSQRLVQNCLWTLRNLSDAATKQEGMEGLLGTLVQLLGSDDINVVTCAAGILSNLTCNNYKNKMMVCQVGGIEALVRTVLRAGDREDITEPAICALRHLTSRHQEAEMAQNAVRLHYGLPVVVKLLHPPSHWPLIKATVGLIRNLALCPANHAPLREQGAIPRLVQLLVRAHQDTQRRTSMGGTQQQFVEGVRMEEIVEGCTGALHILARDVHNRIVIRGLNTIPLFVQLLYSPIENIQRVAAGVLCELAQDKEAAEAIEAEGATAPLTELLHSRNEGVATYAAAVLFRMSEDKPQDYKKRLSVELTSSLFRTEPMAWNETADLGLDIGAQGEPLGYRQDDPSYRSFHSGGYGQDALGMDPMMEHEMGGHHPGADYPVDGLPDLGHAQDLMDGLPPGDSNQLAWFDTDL
UniProt Q93009: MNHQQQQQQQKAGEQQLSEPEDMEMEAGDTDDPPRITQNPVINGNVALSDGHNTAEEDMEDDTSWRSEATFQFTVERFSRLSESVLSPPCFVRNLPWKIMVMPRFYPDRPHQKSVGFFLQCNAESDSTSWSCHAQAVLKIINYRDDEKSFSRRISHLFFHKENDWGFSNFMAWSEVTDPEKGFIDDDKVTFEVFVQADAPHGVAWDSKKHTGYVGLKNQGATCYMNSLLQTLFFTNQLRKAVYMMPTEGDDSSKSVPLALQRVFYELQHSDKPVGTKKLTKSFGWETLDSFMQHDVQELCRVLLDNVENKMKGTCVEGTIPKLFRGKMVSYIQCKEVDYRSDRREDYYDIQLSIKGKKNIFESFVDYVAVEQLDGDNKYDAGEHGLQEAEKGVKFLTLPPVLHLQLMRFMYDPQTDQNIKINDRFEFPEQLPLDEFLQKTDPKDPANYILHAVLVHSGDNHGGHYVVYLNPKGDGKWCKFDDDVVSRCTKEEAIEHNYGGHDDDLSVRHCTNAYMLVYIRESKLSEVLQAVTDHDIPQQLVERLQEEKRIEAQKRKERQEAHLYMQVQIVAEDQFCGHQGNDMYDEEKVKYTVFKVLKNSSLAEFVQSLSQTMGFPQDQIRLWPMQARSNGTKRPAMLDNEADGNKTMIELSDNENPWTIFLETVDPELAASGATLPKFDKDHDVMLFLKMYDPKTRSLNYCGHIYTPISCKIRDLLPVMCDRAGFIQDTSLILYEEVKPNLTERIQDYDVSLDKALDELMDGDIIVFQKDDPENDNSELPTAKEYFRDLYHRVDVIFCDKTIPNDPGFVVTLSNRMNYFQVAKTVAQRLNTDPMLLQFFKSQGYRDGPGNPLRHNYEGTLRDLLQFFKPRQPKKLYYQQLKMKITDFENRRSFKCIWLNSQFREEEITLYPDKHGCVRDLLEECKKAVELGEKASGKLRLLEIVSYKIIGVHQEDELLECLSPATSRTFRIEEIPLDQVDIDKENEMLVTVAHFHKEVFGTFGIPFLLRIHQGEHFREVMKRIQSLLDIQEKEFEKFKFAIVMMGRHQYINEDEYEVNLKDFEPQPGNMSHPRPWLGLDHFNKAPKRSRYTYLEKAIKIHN
UniProt Q9UEE9: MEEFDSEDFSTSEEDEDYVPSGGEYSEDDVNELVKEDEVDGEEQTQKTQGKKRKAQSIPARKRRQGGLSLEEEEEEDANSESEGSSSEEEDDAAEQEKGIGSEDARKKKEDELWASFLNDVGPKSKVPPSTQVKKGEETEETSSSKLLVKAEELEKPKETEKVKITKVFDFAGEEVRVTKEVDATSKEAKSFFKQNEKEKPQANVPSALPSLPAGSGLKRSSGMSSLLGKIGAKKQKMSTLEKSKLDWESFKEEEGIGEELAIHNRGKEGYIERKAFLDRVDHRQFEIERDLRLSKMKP

Target: BioID2-NICD (HEK293 or NIH3T3 stable line; the text does not tell which) (mouse) (UniProt Q01705)
Assay: proximity labelling; BioID as in HEK293 and NIH3T3 stable lines; results told for the study as a whole (core-proximal proteins found in at least two of HEK293, 3T3 and BioGRID, and others) without naming the cell line

binding	Molecule
binds	SMARCC2 (from UniProt Q8TAQ2 1-1214)
binds	NCOR1 (from UniProt O75376 1-2440)
no binding	HDAC3 (from UniProt O15379 1-428)
binds	PHF21A (from UniProt Q96BD5 1-680)
binds	PIAS2 (from UniProt O75928 1-621)
binds	NCOA6 (from UniProt Q14686 1-2063)
binds	TCF20 (from UniProt Q9UGU0 1-1960)
binds	TRIM33 (from UniProt Q9UPN9 1-1127)
binds	TOP2B (from UniProt Q02880 1-1626)
binds	DHX15 (BioID prey) (from UniProt O43143 1-795)
binds	LIN54 (from UniProt Q6MZP7 1-749)
binds	SMARCE1 (from UniProt Q969G3 1-411)
binds	histone deacetylase (HDAC)1 (BioID prey) (from UniProt Q13547 1-482)
binds	DIDO1 (from UniProt Q9BTC0 1-2240)
binds	ZMYM4 (from UniProt Q5VZL5 1-1548)
binds	histone demethylase Jumonji domain containing 1C (JMJD1C) (from UniProt Q15652 1-2540)
binds	USP34 (from UniProt Q70CQ2 1-3546)
binds	XPO5 (from UniProt Q9HAV4 1-1204)

binding	Molecule
binds	WIZ (from UniProt O95785 1-1651)
binds	DDX17 (from UniProt Q92841 1-729)
binds	Rho GTPase family member RhoG (from UniProt P84095 1-191)
binds	CHD4 (from UniProt Q14839 1-1912)
binds	CTBP2 (from UniProt P56545 1-445)
binds	RAI1 (from UniProt Q7Z5J4 1-1906)
binds	β-catenin (CTNNB1) (from UniProt P35222 1-781)
binds	USP7 (from UniProt Q93009 1-1102)
binds	RBBP6 (from UniProt Q7Z6E9 1-1792)
binds	RBM10 (from UniProt P98175 1-930)
binds	CFDP1 (from UniProt Q9UEE9 1-299)
no binding	kinase CDK8 (from UniProt P49336 1-464)
binds	B1
binds	B2
binds	B3
binds	B4
binds	B5
